Test results as given in article PMC4825019.
Results are given in words; binding and its absence hold for the method and conditions named. Binding seen in cells or lysates may run through a third protein. These calls come from enrichment with a bait or labelling near it, and not all partners need be listed.

Target: 0N Tau (endogenous) (mouse (endogenous in C57BL/6 brain))
Assay: affinity purification with mass spectrometry; parallel IPs from 1 mg pre-cleaned brain lysate of 2-month-old C57BL/6 mice with pan-Tau (Dako Tau, M) or 0N-, 1N-, 2N-specific Tau antibodies on protein G-Sepharose, overnight at 4 °C, IP buffer 25 mM Tris-HCl pH 7.4, 150 mM NaCl, 1 mM EDTA, 1% Nonidet P-40, 5% glycerol; Dako IP from Tau KO lysate as negative control; TMT multiplexed quantitative LC-MS/MS; hit: at least 10% above the KO IP with p ≤0.05; preference: ratio at least 10% higher than for the other two isoforms

- binding: binds
B1: synaptogyrin-3 (endogenous) (protein, UniProt Q8R191 1-229)
chain: MEGASFGAGRAGAAFDPVSFARRPQTLLRVVSWVFSIAVFGPIVNEGYVNSDSGPELRCVFNGNAGACRFGVVLGLGAFIACVAFLLLDVRFQQISSVRDRRRAVLLDLGFSGVWSFLWFVGFCFLTNQWQRTTPGPGTAQAGDAARAAIAFSFFSILSWVALTVKALQRFRLGTDMSLFATDQLGTGAAQAYPGYPVGSGVEGTETYQSPPFTETLDTSSKGYQVPAY
